From the supplement of paper PMC11732987, “Enantioselective OTUD7B fragment discovery through chemoproteomics screening and high-throughput optimisation” (Communications Chemistry, 2025) come the findings set out here.

By UniProt entry, the sequences of proteins in these tests, tags left out. Where a name states a change or a piece, a line headed by the entry shows the natural chain unless it says otherwise. Residues count along the entry.
UniProt Q9Y2U8: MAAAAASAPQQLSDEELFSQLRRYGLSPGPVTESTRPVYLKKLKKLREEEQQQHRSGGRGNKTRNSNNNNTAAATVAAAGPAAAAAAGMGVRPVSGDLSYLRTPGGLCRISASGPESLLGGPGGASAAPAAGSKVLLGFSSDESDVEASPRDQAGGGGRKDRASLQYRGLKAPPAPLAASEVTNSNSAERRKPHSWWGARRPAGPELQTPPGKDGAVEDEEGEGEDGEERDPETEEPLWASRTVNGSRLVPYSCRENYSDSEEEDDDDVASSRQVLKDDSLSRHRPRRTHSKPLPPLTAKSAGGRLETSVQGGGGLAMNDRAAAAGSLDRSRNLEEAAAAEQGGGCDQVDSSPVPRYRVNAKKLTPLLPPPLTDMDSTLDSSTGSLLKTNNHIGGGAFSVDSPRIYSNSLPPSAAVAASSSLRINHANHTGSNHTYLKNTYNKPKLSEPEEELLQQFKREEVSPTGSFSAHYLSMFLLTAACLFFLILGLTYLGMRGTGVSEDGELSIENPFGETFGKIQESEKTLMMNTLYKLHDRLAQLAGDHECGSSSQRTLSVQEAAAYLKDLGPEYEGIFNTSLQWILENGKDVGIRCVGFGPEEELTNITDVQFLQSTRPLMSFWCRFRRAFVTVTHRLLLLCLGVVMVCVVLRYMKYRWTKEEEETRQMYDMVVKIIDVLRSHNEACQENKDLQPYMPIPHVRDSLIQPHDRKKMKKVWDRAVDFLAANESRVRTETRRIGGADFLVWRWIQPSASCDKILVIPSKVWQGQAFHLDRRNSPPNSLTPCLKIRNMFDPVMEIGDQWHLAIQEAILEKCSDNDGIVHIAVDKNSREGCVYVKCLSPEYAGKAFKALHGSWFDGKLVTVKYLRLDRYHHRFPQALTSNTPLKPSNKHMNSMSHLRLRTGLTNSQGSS
UniProt Q9C0E8, 148-167: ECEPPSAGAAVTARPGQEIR
UniProt Q6P1Q0: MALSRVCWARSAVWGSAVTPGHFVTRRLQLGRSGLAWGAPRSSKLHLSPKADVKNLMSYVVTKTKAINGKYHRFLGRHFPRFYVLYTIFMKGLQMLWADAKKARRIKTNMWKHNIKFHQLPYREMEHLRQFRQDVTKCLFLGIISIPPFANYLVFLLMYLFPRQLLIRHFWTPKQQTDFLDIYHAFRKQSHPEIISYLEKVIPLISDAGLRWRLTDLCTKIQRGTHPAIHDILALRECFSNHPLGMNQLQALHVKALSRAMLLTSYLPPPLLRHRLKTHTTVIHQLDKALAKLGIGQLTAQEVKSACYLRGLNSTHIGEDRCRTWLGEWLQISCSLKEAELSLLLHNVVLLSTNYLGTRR
UniProt Q03252: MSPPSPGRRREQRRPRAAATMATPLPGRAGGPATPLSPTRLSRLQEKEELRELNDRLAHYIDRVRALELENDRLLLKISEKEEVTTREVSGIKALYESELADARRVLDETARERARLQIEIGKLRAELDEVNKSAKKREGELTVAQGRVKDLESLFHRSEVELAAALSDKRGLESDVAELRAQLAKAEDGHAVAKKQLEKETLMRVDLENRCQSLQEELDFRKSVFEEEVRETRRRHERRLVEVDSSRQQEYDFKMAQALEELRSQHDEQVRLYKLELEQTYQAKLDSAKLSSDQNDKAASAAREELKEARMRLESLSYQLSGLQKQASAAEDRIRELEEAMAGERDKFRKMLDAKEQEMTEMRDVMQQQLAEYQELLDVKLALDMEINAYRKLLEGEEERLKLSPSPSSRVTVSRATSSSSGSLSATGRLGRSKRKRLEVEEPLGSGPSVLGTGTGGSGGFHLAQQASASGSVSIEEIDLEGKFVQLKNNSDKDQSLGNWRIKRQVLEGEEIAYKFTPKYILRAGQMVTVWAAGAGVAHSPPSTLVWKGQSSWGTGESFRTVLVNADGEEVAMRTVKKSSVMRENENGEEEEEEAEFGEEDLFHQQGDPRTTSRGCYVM
UniProt O14686, 1259-1283: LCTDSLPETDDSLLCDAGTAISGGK
UniProt Q93052: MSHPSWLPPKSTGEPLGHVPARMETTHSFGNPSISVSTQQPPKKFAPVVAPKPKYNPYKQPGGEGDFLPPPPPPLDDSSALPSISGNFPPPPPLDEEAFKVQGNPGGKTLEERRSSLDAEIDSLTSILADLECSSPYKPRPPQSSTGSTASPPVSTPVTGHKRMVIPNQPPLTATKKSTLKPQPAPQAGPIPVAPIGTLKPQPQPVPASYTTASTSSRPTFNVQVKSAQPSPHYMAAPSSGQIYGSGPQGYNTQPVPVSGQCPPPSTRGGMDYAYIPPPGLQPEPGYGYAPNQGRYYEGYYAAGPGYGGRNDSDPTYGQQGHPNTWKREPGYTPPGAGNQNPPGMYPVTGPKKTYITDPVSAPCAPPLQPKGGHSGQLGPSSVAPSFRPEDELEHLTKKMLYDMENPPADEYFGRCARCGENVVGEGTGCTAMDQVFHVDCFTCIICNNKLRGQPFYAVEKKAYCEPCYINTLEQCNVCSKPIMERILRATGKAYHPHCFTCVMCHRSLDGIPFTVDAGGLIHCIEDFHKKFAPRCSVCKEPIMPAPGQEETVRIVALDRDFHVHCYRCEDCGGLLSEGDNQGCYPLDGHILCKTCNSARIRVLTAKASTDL
UniProt Q92615, whole entry, looked up: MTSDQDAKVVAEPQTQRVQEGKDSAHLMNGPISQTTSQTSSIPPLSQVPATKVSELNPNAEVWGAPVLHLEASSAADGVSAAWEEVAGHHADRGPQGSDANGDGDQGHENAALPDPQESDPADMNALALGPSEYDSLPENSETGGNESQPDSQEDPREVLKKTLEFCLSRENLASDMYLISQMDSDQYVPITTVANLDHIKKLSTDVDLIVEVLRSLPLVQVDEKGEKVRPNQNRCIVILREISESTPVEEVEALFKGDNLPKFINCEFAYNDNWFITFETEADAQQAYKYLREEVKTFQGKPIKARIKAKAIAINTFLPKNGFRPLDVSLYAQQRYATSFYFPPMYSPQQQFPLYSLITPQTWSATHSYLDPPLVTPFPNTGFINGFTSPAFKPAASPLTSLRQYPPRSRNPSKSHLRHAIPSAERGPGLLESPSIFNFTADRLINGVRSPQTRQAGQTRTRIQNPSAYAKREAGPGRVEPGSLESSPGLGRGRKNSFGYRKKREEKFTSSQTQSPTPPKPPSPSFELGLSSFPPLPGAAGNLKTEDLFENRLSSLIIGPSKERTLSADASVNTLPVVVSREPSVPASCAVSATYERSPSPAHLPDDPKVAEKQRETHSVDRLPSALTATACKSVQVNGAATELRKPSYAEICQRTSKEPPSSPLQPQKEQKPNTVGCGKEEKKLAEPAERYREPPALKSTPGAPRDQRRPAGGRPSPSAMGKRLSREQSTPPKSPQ
UniProt Q8NG31: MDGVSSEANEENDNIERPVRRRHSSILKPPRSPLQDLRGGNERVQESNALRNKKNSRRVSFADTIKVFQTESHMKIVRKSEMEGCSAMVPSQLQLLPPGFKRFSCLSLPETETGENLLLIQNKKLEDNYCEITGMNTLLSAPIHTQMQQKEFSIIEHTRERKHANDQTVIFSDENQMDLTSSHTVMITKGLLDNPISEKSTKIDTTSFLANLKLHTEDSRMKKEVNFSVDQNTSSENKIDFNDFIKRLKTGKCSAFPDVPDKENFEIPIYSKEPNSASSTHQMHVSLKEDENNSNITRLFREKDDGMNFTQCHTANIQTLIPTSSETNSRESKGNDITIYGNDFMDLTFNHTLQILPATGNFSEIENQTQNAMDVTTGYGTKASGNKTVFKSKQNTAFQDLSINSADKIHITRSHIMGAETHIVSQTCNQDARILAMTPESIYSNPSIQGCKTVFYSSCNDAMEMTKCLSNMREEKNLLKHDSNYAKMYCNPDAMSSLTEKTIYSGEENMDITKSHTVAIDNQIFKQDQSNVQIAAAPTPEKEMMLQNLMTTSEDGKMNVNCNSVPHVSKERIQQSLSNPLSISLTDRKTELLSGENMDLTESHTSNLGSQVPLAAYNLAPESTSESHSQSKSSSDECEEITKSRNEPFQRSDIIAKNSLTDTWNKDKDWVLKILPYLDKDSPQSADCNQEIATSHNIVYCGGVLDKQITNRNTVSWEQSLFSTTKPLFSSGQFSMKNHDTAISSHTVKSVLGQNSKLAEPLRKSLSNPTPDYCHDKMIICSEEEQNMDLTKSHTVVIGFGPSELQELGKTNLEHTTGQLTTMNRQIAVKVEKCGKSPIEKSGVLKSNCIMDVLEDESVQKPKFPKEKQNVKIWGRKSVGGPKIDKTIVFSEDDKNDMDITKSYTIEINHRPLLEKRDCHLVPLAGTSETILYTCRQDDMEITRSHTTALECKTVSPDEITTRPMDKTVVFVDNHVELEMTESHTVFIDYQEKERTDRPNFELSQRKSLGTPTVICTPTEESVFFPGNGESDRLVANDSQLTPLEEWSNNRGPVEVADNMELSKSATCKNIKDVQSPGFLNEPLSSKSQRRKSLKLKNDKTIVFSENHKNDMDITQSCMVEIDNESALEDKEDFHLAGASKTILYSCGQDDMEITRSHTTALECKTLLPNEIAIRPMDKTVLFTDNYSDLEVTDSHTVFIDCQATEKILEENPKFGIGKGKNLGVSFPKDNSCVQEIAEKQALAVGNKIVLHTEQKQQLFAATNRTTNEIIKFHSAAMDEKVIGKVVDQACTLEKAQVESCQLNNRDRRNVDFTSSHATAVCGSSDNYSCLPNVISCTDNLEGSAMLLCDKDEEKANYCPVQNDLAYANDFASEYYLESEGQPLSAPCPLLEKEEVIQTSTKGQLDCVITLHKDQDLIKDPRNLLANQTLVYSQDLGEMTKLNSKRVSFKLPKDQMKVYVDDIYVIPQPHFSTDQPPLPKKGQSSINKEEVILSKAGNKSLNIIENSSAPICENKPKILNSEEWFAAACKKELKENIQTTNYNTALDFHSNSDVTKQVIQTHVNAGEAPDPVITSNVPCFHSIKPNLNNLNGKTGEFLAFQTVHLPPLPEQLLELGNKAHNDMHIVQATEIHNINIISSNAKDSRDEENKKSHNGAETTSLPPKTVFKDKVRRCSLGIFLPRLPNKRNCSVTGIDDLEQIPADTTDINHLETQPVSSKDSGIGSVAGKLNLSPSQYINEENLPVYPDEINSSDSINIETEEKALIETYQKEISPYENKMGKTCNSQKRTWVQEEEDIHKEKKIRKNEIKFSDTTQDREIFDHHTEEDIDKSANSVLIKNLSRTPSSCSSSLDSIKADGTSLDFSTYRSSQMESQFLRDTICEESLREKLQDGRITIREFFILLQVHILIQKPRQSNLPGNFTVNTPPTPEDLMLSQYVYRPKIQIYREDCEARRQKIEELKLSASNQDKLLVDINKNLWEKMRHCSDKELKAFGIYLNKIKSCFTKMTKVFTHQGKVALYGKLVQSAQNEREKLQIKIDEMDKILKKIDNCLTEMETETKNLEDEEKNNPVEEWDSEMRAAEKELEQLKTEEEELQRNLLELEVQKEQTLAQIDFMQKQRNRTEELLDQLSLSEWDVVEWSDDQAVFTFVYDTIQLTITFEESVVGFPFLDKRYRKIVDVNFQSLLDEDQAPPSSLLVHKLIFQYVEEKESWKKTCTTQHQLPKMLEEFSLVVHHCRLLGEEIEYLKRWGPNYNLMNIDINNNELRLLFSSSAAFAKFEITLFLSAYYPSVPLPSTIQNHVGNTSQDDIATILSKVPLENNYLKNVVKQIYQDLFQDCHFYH
UniProt P48059, whole entry, looked up: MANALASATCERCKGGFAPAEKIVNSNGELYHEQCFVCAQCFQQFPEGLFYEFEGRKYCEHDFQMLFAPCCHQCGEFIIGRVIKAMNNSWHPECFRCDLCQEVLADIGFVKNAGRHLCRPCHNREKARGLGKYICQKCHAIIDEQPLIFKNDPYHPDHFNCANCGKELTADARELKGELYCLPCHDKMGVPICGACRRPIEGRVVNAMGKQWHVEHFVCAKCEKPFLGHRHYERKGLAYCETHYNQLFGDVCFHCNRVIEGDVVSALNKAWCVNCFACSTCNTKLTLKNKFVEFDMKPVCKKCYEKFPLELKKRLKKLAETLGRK
UniProt Q9BU23, 681-701: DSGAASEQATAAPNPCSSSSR
UniProt Q96EK5: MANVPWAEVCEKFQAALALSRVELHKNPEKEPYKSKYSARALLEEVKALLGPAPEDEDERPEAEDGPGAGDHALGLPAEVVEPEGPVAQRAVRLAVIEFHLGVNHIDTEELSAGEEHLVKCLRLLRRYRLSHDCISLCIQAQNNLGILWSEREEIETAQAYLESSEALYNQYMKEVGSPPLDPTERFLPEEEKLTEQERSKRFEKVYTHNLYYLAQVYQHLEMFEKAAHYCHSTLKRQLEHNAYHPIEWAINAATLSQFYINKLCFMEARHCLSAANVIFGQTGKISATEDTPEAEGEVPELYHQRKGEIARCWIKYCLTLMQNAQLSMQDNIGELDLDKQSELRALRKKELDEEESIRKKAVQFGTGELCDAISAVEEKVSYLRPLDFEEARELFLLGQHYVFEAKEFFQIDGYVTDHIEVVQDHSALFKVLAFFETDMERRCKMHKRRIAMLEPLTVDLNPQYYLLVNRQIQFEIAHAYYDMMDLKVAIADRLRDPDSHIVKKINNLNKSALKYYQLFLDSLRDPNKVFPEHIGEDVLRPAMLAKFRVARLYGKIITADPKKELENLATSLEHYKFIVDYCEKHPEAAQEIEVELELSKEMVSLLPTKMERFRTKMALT

This is one part of the list. The data scatter; read single values as rough.

Compound in one assay: ClCC(=O)N[C@@H]1CCCc2ccccc12
Nature of the assay: log2 mean competition ratio of IA-DTB cysteine labelling (DMSO/compound) (log2 ratio); higher = stronger cysteine engagement by compound. The conditions noted are these: 50 µM; treatment time: 4 h; cell line lysate: HEK293T. How it is done: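 IA-DTB competitive cysteine chemoproteomics in HEK293T RIPA lysate. Lysates were treated with compound 29 or 30 at 50 or 200 µM for 4 h, then IA-DTB (500 µM, 1 h), trypsin-digested, NeutrAvidin-enriched and analysed by diaPASEF. Competition ratio = intensity DMSO / intensity compound (n=4 treated, n=64 DMSO); binding: mean log2 CR ≥ 1 and p ≤ 0.05 plus QC filters. Target is the cysteine site.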
With LEMD3 C108 (UniProt Q9Y2U8), the “log2 mean competition ratio” value was -0.0369. LNPK C149 (UniProt Q9C0E8): the “log2 mean competition ratio” value was -0.00949. Turning to KLC4 C489 (UniProt Q9NSK0), the “log2 mean competition ratio” value is -0.457.

For the target LETMD1 C218 (UniProt Q6P1Q0), the “log2 mean competition ratio” value is -0.0936. Take LMNB2 C212 (UniProt Q03252): the “log2 mean competition ratio” value came out at 0.0691. As for “KMT2D_(C1260,C1260,C1273,C1273) (UniProt O14686)”, the “log2 mean competition ratio” value is -0.219.

For LPP C364 (UniProt Q93052), the “log2 mean competition ratio” value came out at 0.0328. Same read-out and setting: the result for LRCH4 C622 (UniProt O75427) reads -0.252; that for LARP4B C590 (UniProt Q92615), 0.0172. As to KNL1 C2051 (UniProt Q8NG31), the “log2 mean competition ratio” value was -0.152.

On to LIMS1 C138 (UniProt P48059), for which the “log2 mean competition ratio” value stood at 0.332. Turning to LIMS3;LIMS4 C10;(C10), the “log2 mean competition ratio” value was -0.0545. KTN1 C1105: the “log2 mean competition ratio” value is -0.037. For the target LATS2 C813 (UniProt Q9NRM7), the “log2 mean competition ratio” value is -0.316. LIMS1 C300 (UniProt P48059): the “log2 mean competition ratio” value is -0.147. With KNTC1 C967 (UniProt P50748), the “log2 mean competition ratio” value was -0.223.

Turning to LRPPRC C130, the “log2 mean competition ratio” value worked out at 0.00381. On the same count and under the same terms, under LONRF2 C220 (UniProt Q1L5Z9) stands -0.353; under LRCH3 C227 (UniProt Q96II8), -0.123; under KMT2B C1268 (UniProt Q9UMN6), -0.18. For the target LIG3 C929 (UniProt P49916), the “log2 mean competition ratio” value is -0.117. Same read-out and setting: the result for KNL1 C638 (UniProt Q8NG31) reads -0.259; that for LMF2 C696 (UniProt Q9BU23), -0.202; that for LRBA C832, -0.0105. Consider LEMD3 C838 (UniProt Q9Y2U8), for which the “log2 mean competition ratio” value is -0.103. Take KIT C691 (UniProt P10721): the “log2 mean competition ratio” value is -0.188. In the case of LARP4B C679 (UniProt Q92615), the “log2 mean competition ratio” value was -0.073.

As for KTN1 C736, the “log2 mean competition ratio” value is 0.000238. As to LIG3 C336 (UniProt P49916), the “log2 mean competition ratio” value is 0.408.

Turning to KMT2A C2074 (UniProt Q03164), the “log2 mean competition ratio” value is -0.135.

KNL1 C774 (UniProt Q8NG31): the “log2 mean competition ratio” value is -0.0659. Regarding LRPPRC C1043, the “log2 mean competition ratio” value is 0.313. For KLHL11 C526 (UniProt Q9NVR0), the “log2 mean competition ratio” value is -0.0889. Consider LAS1L C690 (UniProt Q9Y4W2), for which the “log2 mean competition ratio” value is -0.123.

For the target KMT2A C1536 (UniProt Q03164), the “log2 mean competition ratio” value is -0.0588.

Turning to KIFBP C583 (UniProt Q96EK5), the “log2 mean competition ratio” value was -0.0918.

Turning to LGALS1 C61 (UniProt P09382), the “log2 mean competition ratio” value is -0.105.

Still in this assay, the particulars now being: 200 µM; treatment time: 4 h; cell line lysate: HEK293T.
For the target LEMD3 C108 (UniProt Q9Y2U8), the “log2 mean competition ratio” value worked out at 0.0516.

In the case of LNPK C149 (UniProt Q9C0E8), the “log2 mean competition ratio” value is -0.117. Same read-out and setting: the result for KLC4 C489 (UniProt Q9NSK0) reads 0.111; that for LETMD1 C218 (UniProt Q6P1Q0), -0.362; that for LMNB2 C212 (UniProt Q03252), 0.195.

“KMT2D_(C1260,C1260,C1273,C1273) (UniProt O14686)”: the “log2 mean competition ratio” value stood at 0.265. On to LPP C364 (UniProt Q93052), for which the “log2 mean competition ratio” value is -0.0567. LRCH4 C622 (UniProt O75427): the “log2 mean competition ratio” value came out at 0.357. On to LARP4B C590 (UniProt Q92615), for which the “log2 mean competition ratio” value was -0.0435.

For KNL1 C2051 (UniProt Q8NG31), the “log2 mean competition ratio” value was 0.202. The same measure, in the same setting: the result for LIMS1 C138 (UniProt P48059) reads -0.178; that for LIMS3;LIMS4 C10;(C10), -0.102. On to KTN1 C1105, for which the “log2 mean competition ratio” value was 0.109. As for LATS2 C813 (UniProt Q9NRM7), the “log2 mean competition ratio” value was -0.164.

For LIMS1 C300 (UniProt P48059), the “log2 mean competition ratio” value is 0.109. On to KNTC1 C967 (UniProt P50748), for which the “log2 mean competition ratio” value was -0.245.

For the target LRPPRC C130, the “log2 mean competition ratio” value was -0.13. As to LONRF2 C220 (UniProt Q1L5Z9), the “log2 mean competition ratio” value was found to be 0.846.
